Results from publication PMC6553703.
Where two headings read alike, the source gives them in different places. No constants are given. Whether binding was seen depends on the method and setting. In cells and extracts the contact can be indirect. These calls come from enrichment with a bait or labelling near it, and not all partners need be listed. For some assays here: No binding means not detected with the bait. Tags and fused reporters may be left off the sequences shown.

The chains behind the UniProt entries cited, without tags or fusion partners.
UniProt O74424: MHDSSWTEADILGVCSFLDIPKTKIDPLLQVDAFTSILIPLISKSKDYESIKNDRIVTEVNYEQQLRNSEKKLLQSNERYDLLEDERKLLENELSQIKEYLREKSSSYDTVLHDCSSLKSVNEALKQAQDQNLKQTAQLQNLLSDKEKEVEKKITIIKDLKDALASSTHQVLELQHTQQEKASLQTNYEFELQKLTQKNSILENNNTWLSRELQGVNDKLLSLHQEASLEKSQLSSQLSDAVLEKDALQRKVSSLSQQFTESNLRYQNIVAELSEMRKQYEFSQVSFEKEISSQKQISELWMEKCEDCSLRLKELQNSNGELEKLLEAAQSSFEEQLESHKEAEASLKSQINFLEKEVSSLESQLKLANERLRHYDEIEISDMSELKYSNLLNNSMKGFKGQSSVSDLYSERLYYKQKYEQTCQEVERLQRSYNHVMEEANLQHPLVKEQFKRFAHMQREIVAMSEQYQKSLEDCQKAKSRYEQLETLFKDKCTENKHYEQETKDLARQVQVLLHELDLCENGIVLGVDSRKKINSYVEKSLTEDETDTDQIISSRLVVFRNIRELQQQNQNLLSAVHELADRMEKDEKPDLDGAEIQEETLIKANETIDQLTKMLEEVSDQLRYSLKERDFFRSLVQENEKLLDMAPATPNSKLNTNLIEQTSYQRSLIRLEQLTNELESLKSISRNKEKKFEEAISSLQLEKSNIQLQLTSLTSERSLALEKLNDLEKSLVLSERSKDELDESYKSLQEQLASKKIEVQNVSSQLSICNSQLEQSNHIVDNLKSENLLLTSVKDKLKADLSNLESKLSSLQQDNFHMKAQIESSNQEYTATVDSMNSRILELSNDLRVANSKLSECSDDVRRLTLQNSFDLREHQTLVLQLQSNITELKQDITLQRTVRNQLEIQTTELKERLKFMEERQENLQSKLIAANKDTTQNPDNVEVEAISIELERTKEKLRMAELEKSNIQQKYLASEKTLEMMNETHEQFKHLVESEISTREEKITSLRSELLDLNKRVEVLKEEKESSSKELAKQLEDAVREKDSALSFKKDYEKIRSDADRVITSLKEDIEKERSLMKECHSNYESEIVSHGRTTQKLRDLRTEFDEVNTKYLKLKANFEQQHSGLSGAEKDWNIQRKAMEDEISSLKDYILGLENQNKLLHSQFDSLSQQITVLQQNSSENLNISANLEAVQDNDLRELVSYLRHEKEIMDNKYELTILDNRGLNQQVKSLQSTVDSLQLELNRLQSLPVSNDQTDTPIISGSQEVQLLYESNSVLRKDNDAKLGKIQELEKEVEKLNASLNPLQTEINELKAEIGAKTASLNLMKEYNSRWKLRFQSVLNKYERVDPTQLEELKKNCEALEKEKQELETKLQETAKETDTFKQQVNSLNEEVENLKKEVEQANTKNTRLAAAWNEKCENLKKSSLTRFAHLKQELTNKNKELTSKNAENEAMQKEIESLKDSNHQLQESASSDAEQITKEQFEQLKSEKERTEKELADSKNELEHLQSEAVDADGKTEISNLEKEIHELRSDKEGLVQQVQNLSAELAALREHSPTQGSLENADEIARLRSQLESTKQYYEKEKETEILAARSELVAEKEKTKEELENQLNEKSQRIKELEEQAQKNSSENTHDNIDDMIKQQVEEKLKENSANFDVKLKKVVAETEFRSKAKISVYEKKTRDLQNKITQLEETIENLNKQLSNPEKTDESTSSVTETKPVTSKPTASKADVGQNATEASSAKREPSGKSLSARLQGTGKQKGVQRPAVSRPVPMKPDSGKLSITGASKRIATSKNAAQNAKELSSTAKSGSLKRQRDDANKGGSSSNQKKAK

T1: GFP-spNup131 (S. pombe) (UniProt Q9P797)
T1 sequence: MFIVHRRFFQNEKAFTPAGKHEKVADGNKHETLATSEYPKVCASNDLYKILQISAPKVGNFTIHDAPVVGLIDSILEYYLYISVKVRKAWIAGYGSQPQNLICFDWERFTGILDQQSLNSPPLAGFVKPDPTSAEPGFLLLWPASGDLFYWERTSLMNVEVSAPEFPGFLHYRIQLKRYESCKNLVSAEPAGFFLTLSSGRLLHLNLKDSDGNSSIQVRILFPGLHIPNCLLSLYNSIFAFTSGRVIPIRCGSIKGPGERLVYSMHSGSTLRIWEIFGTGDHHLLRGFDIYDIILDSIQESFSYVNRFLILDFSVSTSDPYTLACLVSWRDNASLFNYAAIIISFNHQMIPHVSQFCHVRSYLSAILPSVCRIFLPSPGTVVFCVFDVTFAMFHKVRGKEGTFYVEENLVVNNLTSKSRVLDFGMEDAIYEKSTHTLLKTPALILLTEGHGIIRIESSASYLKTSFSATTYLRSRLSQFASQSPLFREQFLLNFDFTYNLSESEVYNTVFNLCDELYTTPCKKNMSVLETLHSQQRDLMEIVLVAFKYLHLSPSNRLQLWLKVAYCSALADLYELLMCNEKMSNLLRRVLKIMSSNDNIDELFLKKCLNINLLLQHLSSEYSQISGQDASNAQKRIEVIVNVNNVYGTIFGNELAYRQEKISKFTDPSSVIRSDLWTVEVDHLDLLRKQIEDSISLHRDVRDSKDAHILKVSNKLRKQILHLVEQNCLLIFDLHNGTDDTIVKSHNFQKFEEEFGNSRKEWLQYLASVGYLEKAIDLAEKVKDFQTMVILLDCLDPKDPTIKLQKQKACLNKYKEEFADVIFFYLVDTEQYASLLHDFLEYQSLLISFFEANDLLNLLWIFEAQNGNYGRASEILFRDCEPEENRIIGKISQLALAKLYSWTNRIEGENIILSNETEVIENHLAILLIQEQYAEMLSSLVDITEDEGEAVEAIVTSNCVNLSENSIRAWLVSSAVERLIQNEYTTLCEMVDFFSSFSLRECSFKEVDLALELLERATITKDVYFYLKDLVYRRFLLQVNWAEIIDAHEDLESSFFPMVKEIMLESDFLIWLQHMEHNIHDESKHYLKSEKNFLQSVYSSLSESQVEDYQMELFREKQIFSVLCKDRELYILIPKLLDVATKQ

T2: GFP-spNup132 (S. pombe) (UniProt Q9UTH0)
T2 sequence: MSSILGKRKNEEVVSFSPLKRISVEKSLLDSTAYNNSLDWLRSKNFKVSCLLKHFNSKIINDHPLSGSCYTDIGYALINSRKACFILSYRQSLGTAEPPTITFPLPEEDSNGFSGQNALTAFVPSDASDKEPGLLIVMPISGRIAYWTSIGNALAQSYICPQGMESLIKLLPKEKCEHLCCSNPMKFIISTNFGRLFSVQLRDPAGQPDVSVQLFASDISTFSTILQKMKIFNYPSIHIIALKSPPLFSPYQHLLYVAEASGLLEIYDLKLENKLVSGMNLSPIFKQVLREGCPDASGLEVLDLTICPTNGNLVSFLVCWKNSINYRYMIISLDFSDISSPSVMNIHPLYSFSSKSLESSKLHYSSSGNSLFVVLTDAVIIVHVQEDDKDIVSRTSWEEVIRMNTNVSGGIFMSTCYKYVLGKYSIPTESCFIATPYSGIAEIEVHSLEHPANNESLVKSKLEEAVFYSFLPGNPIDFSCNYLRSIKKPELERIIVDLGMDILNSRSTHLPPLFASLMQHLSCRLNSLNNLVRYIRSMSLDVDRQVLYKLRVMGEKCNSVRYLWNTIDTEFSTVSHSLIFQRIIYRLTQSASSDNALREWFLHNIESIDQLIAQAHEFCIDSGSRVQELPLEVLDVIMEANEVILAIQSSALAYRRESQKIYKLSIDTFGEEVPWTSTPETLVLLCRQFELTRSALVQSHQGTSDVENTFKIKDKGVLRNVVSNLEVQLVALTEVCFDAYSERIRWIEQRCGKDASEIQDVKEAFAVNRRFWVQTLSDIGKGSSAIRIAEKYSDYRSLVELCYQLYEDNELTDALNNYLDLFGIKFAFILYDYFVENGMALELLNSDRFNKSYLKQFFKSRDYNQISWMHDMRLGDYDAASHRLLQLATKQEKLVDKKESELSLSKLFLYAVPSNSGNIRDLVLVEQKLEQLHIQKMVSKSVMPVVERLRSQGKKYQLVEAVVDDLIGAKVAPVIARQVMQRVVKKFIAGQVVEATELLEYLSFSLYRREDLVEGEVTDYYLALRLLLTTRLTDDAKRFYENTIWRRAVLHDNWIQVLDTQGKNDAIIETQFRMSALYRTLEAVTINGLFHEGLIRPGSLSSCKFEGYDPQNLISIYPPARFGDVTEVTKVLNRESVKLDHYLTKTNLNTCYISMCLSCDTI


Experiments:
Assay in all cases: affinity purification with mass spectrometry; S. pombe whole-cell extract (50 mM HEPES pH 7.5, 150 mM NaCl, 1% Triton X-100, 1 mM EDTA, 2 mM PMSF) incubated with rabbit anti-GFP antibody; collected on Protein A Sepharose beads, washed 4-5 times with lysis buffer; SDS-PAGE and LC/MS/MS; two independent experiments
GFP-spNup131 (S. pombe) [1] = target: T1, GFP-spNup131 (S. pombe)
GFP-spNup132 (S. pombe) [2] = target: T2, GFP-spNup132 (S. pombe)
GFP-spNup131 (S. pombe) [3] = target: T1, GFP-spNup131 (S. pombe); remark: listed apart in the source
GFP-spNup132 (S. pombe) [4] = target: T2, GFP-spNup132 (S. pombe); remark: listed apart in the source

Molecule	binding (GFP-spNup131 (S. pombe) [1])	binding (GFP-spNup132 (S. pombe) [2])	binding (GFP-spNup131 (S. pombe) [3])	binding (GFP-spNup132 (S. pombe) [4])
spNup211 (from UniProt O74424 1-1837)	no binding	binds	–	–
spFar8 (S. pombe (endogenous in S. pombe cells))	binds	–	–	–
spNup107 (protein, UniProt Q10331 1-794) MHQNALNNATLNVLGHKKNGSSSIQELIEMDEEEAEMNQNVVCIGPNETAVSVELGDEYEKFNIITSLKKDNLFSKDGLLYAYYELCQEKFEKCLKEDDEEWIELWDLESRTWDLIQRLYSFRLSEQQGHIQSHAFSSRAVLEEEYYSQNPEAFENNIVFNWARDNSSDPPSIEIRGNRWFYTREDIKMKNRGGSRFSSNISGTIVSNLDPDADIRDDKRLDERDDNFERQFFHTAFCLFRSGSFEELLELCRRTGNHWRSASLQGILEYRDNLIDDVLQSETSGNKRKELLRRSCLALTKNKRIDSYERALYGALCGDLNSVLDVCTTWEDAMWAYYNSMTQYNLDVYLSSKAPQTETQLPPVDSGLGLTPELIFNSLSNSSIASIQEEASHPLIKLQTHIICNKISEILSSAHIQLEAIRTGNAPESGDLVTPPLLRILTHIILFLKISGLAVDEYTSDSIIQAYIELLASAKKVNLVPLYIQYLSNQVQYEAYSRFLILVDEESARSEQLQLAKKYSLDINHAALLAVEYVYDEVVSVSPEEVHTVYLKSIEEPVEPSYKKLICTLEWLLITSQTDELLRFANLVYRFFLSIGELNSAYDLYTHIPSDALNTLSSSDGEPENDSKFRDAYELMNYRALCRALKFYQEWEELSKQEVFEDSAVTKASTSYKVWKKKLNFASRKCVKSFTDLLQANWLHPSTLELKPDDDPLLYKTLMTIRNLYVPELILGLHNVYFSLEDYDSCFALANEVASEDLKLYHCLIKSGRLVEYVSYLGKAGECSLSTPNGLFSL	–	–	binds	binds
spNup85 (protein, UniProt Q9UUE5 1-675) MESSDEVDLPVYHLQNAPIENGKLNDWRSKGRTVAFKLHPFLRKGLAYINNKEFDENTLKSDKFEEVESLVYEFSTPSTLIEPNYLLTAWHELWEELQDTYMTPILDSEANLLLLTQFYGKISSLFRSKIIQVLEELQSRINEGEKDCQPVLDSLWEVESAWRCAEAIYFPPSSPYTLSTGILDWVNAYDPQPIADDGLEIMAYRIPYQHPEFWPYVNKTAIRGLFEQTISCLEMSGLTKEWPVLKETVDELIDILRYSPCTHQKRIRSVSDFERRWKLWRSRLANLRHVVKKHRDIDSEVLDDFVVLLDILNGNKEVIMLSCAHWQEYFSALAFLYGPLDCKNPEDISLLYQLATGEDSKFYVNGTIEYEQICVNLCSNEPLNAIKHAYLLDLGLAVHLADLLSKSGHLRDYITEEYPITLREHLILEYGQCVLESRNLWQTSFAYWKCVADSGYQRIKACIPYVPLSDVDAKETALQLCKQLKLRDEAQLVLTHWADELIARNHYGEALIALDNAANYSALNRVTWELFDICIAEKKSFSPDKDELLYELFSSPKACTPTLASIISPAATIHQYFFYLQHKKELNASELLVGLLTMVDFPSSRFPKLLELLHEFLNNPLQSNSTDFKLSLVNVYDCIAVLQDQQSTVKDQQLLLSIHERLSSAISWYFLHLKK	–	–	binds	binds
spNup146 (protein, UniProt Q09847 1-1325) MNAENTFSILNTNEPNAGGSQVTESEIEEEDIEFLSFAALKIGATSSLSNSSLGLPEYSNLFAINNLKSLFVAGVPNYLIIGSTLDLQKSLIDADENVDANVLKDSASIRHVSLPDAKFSMVSFSSNGEFVIAYDFVSFELSVYETDALLKNSATSIYKAVFPDLVQVLPNPEINNLVILRNLKLEVFLLSLSKFQVESPLAKDATCAAWSRRGKQCVIGFNNGTMSQYTPAGEIKLRIPRPPSLENYFVECISWIENREFVVFYSPLTSLSNESDEPPHESECFVISVGMNGHFNFGKAGDPTPPFGAVNRRDHHYIASLHAWKPDLRSLVVVANTASADLGVLALSMEKNQWSILNIVDETKRASLPYSNKKDSDSSPTALVMDFTATDRISKPLDPTEAPADCSPLPIVWVFNDEFQLVAYRIFYADAISKSIDYPEMNVIKDKNKDSTVRASNNENIPTPDKQASPFVKNLSSTSSPFSQSSAFGNFKFGQATSFDKGLSTDASSGAKSNTPVFGQPSTFGQAPVFGQPSAFGQAPVFGQPSAFGQSSFSFGTSNMNQKLDFGTFKSPLSGAATGEAKTNLEKAVTSASGKASFTGFAPSQSTTSGLNFDSIPKDNEAASIFGSSQVSTKNTSGFQFSNNTLLADNVDEDIESDHDTKIEELANSDVEPSTEQNIGGDVSWGASTFQSKPQPSFSFGLTLDDKSNTPGKNFSIFGKTAETQVEQKKPENNVLTKPFSFAPSDKSMFAANIPSAGEGLDQQKTSKALPSTGITKLSENDNEKAEESNETKGFNTTIAKQNDKSSKSEGKASVANMSALNKSTNNETSDSKPSLKSPLFNFSADAPTFTFNKPSETPPFSFNKPLVEKESKQDVSDTSDRSPFSFKAFGIDSKKSPTPEPTEMAESNISEESEGWKLIEQPNVESEIEDQDEESSDLNGKRRSTPPKIHEVGVNKMLDVVPKEKRDLNSFFPKQPLVVQSTDKNKKEPQESLEDEILSAEGFSEVEAANKISRFEPFSSPKLKLATSDNAPEKYVFEESESSDLEEGPVPLRNLESLADLPEAESNEKLPMVNTFERLYLQFKNELDLVWQNINIIAEYIEGQTSTPSAVSEQATMAMLSQNTEELEDLLDTVTSFSAFCSDYSKQIDYLEACLVRINAKRIQVTRLLKALTNPAFEKQMELRQLGPEALRRQKELRLKMEKVLKSLSTLEQQAVDARMSDTRRFKKPTLGSIEVAYSRIATLLGQRLKQLYKLEKDIKRMATKKKMITKKSMSSDMMTQFRALGISQSSTKQVSAHYLREFERQDAFRNGVFKRLTSLKKAD	–	–	binds	–
